“Also recorded” adds a separate entry of the source. At least one compound was matched to its structure with a doubt left.
Test system: resistin protein secretion by human macrophages
Test: Resistin protein secretion by primary human macrophages (ELISA)
Type: cell-based
Conditions: pre-treated with rosiglitazone 24 h, then LPS (1 μg/ml) and rosiglitazone 24 h
Experimental: Peripheral blood mononuclear cells were isolated from whole blood of healthy donors following apheresis and elutriation. […] Cells were plated in 24 well plates at a density of 10^6 cells per well, allowed to adhere for 4 hours, then washed with Dulbecco's Modified Eagles Medium (DMEM) and further cultured in 10% FBS in DMEM supplemented with 5 ng/ml GM-CSF (Sigma) to promote macrophage differentiation. All experiments were performed after overnight equilibration with macrophage serum free medium (Gibco/Invitrogen) supplemented with 5 ng/ml GM-CSF. […] Adenovirus expressing activated IKK in pAD-easy™ vector with GFP and control vector were a generous gift from Steven Shoelson.
Resistin concentrations, in cell media and human plasma, were assessed with a commercially available ELISA (Linco) and normalized to cell protein.

Compound: CN(CCOc1ccc(CC2SC(=O)NC2=O)cc1)c1ccccn1 (stereo not shown) [rosiglitazone]
- effect on resistin protein secretion in LPS-stimulated human macrophages: significantly reduced; also recorded: suppresses resistin protein production

Source: patent US20110110924A1, “Resistin as a Marker and Therapeutic Target for Cardiovascular Disease” (priority 2004, published 2011)
